Reference: patent US20240139333A1, “2,6-DICHLOROPHENYL ESTER COMPOUNDS AND USE THEREOF” (Fusion Pharmaceuticals Inc., priority 2021, published 2024)

How the values were obtained:
[1] = Comparative active ester reactivity study with HOA nucleophile (benzhydroxamic acid); conditions: Benzhydroxamic Acid 1 eq., 22±2° C.
Description: (§1) General Experimental Protocol for Comparative Active Ester Reactivity Study with HOPO or HOA Nucleophiles
(§2) To a 4 mL scintillation vial containing Compound A-E (in respective experiments; 1 eq.) was added a stir bar followed by 150 μL of HPLC grade acetonitrile. In another 4 mL scintillation vial containing a respective nucleophile (1 eq.) was added 280 μL HPLC grade water. The solutions were combined and allowed to stir at room temperature (22±2° C.) for 4 hours. Timed aliquots at time (T)=15, 30, 60, 120 and 240 minutes were taken and analyzed by HPLC-MS using elution method 1 (Table 1).

[2] = Active ester reactivity study with amino acids (N-Acetyl-L-Cysteine); conditions: N-Acetyl-L-Cysteine 5 eq., 22±2° C.
Description: (§3) General Experimental Protocol for Nucleophilic Reactivity Study with Amino Acids
(§4) To a 4 mL scintillation vial containing Compound A or C (1 eq.) was added a stir bar followed by 70 μL of HPLC grade acetonitrile. In another 4 mL scintillation vial containing a respective amino acid (1-5 eq.) was added 130 μL HPLC grade water followed by diisopropylethylamine (5 eq.). The solutions were combined and allowed to stir at room temperature (22±2° C.) for 4 hours. Timed aliquots at time (T)=15, 30, 60, 120 and 240 minutes were taken and analyzed by HPLC-MS using elution method 1 (Table 6).

[3] = Comparative active ester reactivity study with HOPO nucleophile; conditions: 1,2-HOPO 1 eq., 22±2° C.
Description: as §1, §2

[4] = Comparative active ester reactivity study with HOA nucleophile (N-hydroxy-N-methylbenzamide); conditions: N-Hydroxy-N-methylbenzamide 1 eq., 22±2° C.
Description: as §1, §2

[5] = Competitive reactivity study between L-Lysine and HOA nucleophile; conditions: L-Lysine 5 eq. / N-Hydroxy-N-methyl benzamide 1 eq
Description: (§5) General Experimental Protocol for Competitive Reactivity Study with L-Lysine and HOPO or HOA Nucleophiles
(§6) To a 4 mL scintillation vial containing Compound A (1 eq.) was added a stir bar followed by 70 μL of HPLC grade acetonitrile followed by a respective HOPO or HOA nucleophile (1 eq). In another 4 mL scintillation vial containing L-Lysine monohydrochloride (5 eq.) was added 130 μL HPLC grade water followed by diisopropylethylamine (5 eq.). The solutions were combined and allowed to stir at room temperature (22±2° C.) for 4 hours. Timed aliquots at time (T)=15, 30, 60, 120 and 240 minutes were taken and analyzed by HPLC-MS using elution method 1 (Table 7)

[6] = Nucleophilic reactivity study with L-Lysine; conditions: L-Lysine 5 equiv
Description: General Experimental Protocol for Nucleophilic Reactivity Study with L-Lysine
To a 4 mL scintillation vial containing Compound A-E (in respective experiments; 1 eq.) was added a stir bar followed by 70 μL of HPLC grade acetonitrile. In another 4 mL scintillation vial containing L-Lysine monohydrochloride (5 eq.) was added 130 μL HPLC grade water followed by diisopropylethylamine (5 eq.). The solutions were combined and allowed to stir at room temperature (22±2° C.). Timed aliquots at time (T)=15, 30, 60 and 120 minutes were taken and analyzed by HPLC-MS using elution method 1 (Table 2).

[7] = Competitive reactivity study between L-Lysine and HOPO nucleophile; conditions: L-Lysine 5 eq. / 1,2-HOPO 1 eq.
Description: as §5, §6

[8] = Active ester reactivity study with amino acids (Z-Arg-OH); conditions: Z-Arg-OH 1 eq., 22±2° C.
Description: as §3, §4

[9] = Active ester reactivity study with amino acids (Z-Ser-OH); conditions: Z-Ser-OH 1 eq., 22±2° C.
Description: as §3, §4

O=C(CCc1cccnc1)Oc1c(Cl)cccc1Cl [Compound A, 2,6-Dichlorophenyl-3-(pyridin-3-yl)propanoate]
% Nucleophilic Substitution Product ([1]; 15 min): (2.95) % | % Nucleophilic Substitution Product ([1]; 30 min): (4.03) % | % Nucleophilic Substitution Product ([1]; 60 min): (7.64) % | % Nucleophilic Substitution Product ([1]; 120 min): (13.35) % | % Nucleophilic Substitution Product ([1]; 240 min): (21.93) % | % Nucleophilic Substitution Product ([2]; 15 min): (0) % | % Nucleophilic Substitution Product ([2]; 30 min): (0.14) % | % Nucleophilic Substitution Product ([2]; 60 min): (0.16) % | % Nucleophilic Substitution Product ([2]; 120 min): (0.30) % | % Nucleophilic Substitution Product ([2]; 240 min): (17.48) % | % Nucleophilic Substitution Product ([3]; 15 min): (0) % | % Nucleophilic Substitution Product ([3]; 30 min): (0) % | % Nucleophilic Substitution Product ([3]; 60 min): (0) % | % Nucleophilic Substitution Product ([3]; 120 min): (0) % | % Nucleophilic Substitution Product ([3]; 240 min): (0.26) % | % Nucleophilic Substitution Product ([4]; 15 min): (0.43) % | % Nucleophilic Substitution Product ([4]; 30 min): (0.66) % | % Nucleophilic Substitution Product ([4]; 60 min): (1.53) % | % Nucleophilic Substitution Product ([4]; 120 min): (3.77) % | % Nucleophilic Substitution Product ([4]; 240 min): (7.62) % | % HOPO or HOA Substitution ([5]; 15 min): 0.24% | % Total Lysine Substitution ([5]; 15 min): 34% | % HOPO or HOA Substitution ([5]; 30 min): 0.33% | % Total Lysine Substitution ([5]; 30 min): 84.84% | % HOPO or HOA Substitution ([5]; 60 min): 0.83% | % Total Lysine Substitution ([5]; 60 min): 97.54% | % HOPO or HOA Substitution ([5]; 120 min): 1.01% | % Total Lysine Substitution ([5]; 120 min): 98.99% | % Total Lysine Substitution ([6]; 15 min, 22±2° C.): 39.56% | % Total Lysine Substitution ([6]; 30 min, 22±2° C.): 73.69% | % Total Lysine Substitution ([6]; 60 min, 22±2° C.): 99.02% | % Total Lysine Substitution ([6]; 120 min, 22±2° C.): 100% | % Total Lysine Substitution ([6]; DMAP 10 mol % added, 15 min): 99.14% | % Total Lysine Substitution ([6]; DMAP 10 mol % added, 30 min): 100% | % HOPO or HOA Substitution ([7]; 15 min): 0% | % Total Lysine Substitution ([7]; 15 min): 11.67% | % HOPO or HOA Substitution ([7]; 30 min): 0% | % Total Lysine Substitution ([7]; 30 min): 25.48% | % HOPO or HOA Substitution ([7]; 60 min): 0% | % Total Lysine Substitution ([7]; 60 min): 71.71% | % HOPO or HOA Substitution ([7]; 120 min): 0% | % Total Lysine Substitution ([7]; 120 min): 97.99% | % HOPO or HOA Substitution ([7]; 240 min): 0% | % Total Lysine Substitution ([7]; 240 min): 100% | % Nucleophilic Substitution Product ([8]; 15 min): (1.04) % | % Nucleophilic Substitution Product ([8]; 30 min): (1.8) % | % Nucleophilic Substitution Product ([8]; 60 min): (2.98) % | % Nucleophilic Substitution Product ([8]; 120 min): (4.18) % | % Nucleophilic Substitution Product ([8]; 240 min): (5.81) % | % Nucleophilic Substitution Product ([9]; 15 min): (0) % | % Nucleophilic Substitution Product ([9]; 30 min): (0) % | % Nucleophilic Substitution Product ([9]; 60 min): (0.08) % | % Nucleophilic Substitution Product ([9]; 120 min): (0.23) % | % Nucleophilic Substitution Product ([9]; 240 min): (0.44) %
